Out of some 52,000 sequences screened, about 210 (0.4%) were called active.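 Rule for the calls: active = gene whose silencing raises cell survival under the drug, median off-target-corrected z-score across its silencing RNAs 2 or more; inactive = the rest.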 Some of the results follow.

The results in this text go back to PubChem BioAssay AID1347423 (Functional Genomics Laboratory (NCATS/FGL), 2020).

The nature of the assay: Resistance to Poly (ADP-Ribose) Polymerase inhibitor: Gene Identification via Genome-wide siRNA Screen. To be noted: mouse BRCA2 R2336H ES cells, olaparib, CellTiter-Glo viability; active compounds read high. In short, it runs like this: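 Genome-wide siRNA screen (3 siRNAs/gene, 20 nM) in mouse ES cells carrying hypomorphic BRCA2 R2336H; olaparib 500 nM added 48 h post-transfection, CellTiter-Glo viability 72 h later. Normalized to plate-median negative control; MAD z-scores, gene median, seed-adjusted.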
Turning to GGAAAUAGGCAAGUUGUUGTT against Luc7l2, the z-score is inactive: 0.529. Next, “GGAUGAGGUGGAAAAAAUGTT against 1700029H14Rik”: inactive: -2.16; “CCCUGGUAUUUCUGUUAUATT against 4930471M23Rik”: inactive: -0.361; CGGACAGAUACAAUAGCUATT against BC057627: active: 3.74. Next, CCUGAAAUGCUAAGACUACTT against LOC380907: inactive: -0.607.

For the sequence GGGAAUGGAUGUUAUGAGUTT against Oas1a, the z-score was inactive: -0.498. Next, GAUUCCUUUUUUGGAGGCGTT against Olfr45: inactive: 0.725. Under “GGAAGCAGAUGCUAUUUAUTT against 2610031L17Rik” stands inactive: -2.15; under “GAACUGGGCCUAGAACUUGTT against 0610012D14Rik”, inactive: -1.57.

In the case of GGUUGUUUUGGAAUUGAUATT against Smu1, the z-score is inactive: -3.31. Under GGCCCAGGAGAUUUUCCAATT against Proc stands inactive: -0.188; under CGUCUACUUCGUACAAAUGTT against Gm1128, inactive: 0.585; under GGUUUCGUCUGUUCCUUAATT against Dom3z, inactive: -0.887.

Consider GGUGCGAGUGGAAUUCAUGTT against Rps28, for which the z-score was inactive: -3.22. Under GGUGUUAGAAAGAGACCAGTT against Vamp3 stands inactive: 1.81.

Regarding GGGACGAUGACAAGAACAATT against Mcfd2, the z-score is inactive: -0.944. Under GGUACACUGCUUAUUGGUATT against Olfr857 stands inactive: -0.206. Next, GCUGAGUUAUCGUUUAUGATT against Cldn18: inactive: 0.284; GCAUUGGUGUUUAGUUGGUTT against Gdf2: inactive: -0.0547.

GGGCCCGAUGAAGCAAAAATT against Hnrpr: the z-score was inactive: 2.05.

As to “GCAUUAGGUAUUACUACCUTT against 9230118O15Rik”, the z-score is inactive: 0.35. Under GGGUUUUGUCUUAAUGAAUTT against Scn10a stands inactive: 0.71; under “GGGAAUCCAUUAUUGCUGATT against 4933400C05Rik”, inactive: 0.34; under GCAUGACAAAUCUAAAAAGTT against Pcdh7, inactive: 1.17. As to GGUAAUAGGCAAAGAUUUATT against Hdac9, the z-score was inactive: -0.538. On to GGAGGAGAACACCUUGAAUTT against Trpc1, for which the z-score is inactive: -0.179. In the case of GCUGUUAUUUAGGUUUCAGTT against Cxcl2, the z-score was inactive: 0.217. Next, CGAUAUGUGUUUGUAAUGGTT against Atp6v1d: inactive: -0.78; CCCUCACAAUGAUCGAUUUTT against Tkt: inactive: 0.55. Under GGUGAUACCAUCACUUUGATT against Mark2 stands inactive: -1.96. In the case of GGAACAGAUUCUUAACUCCTT against BC050196, the z-score is inactive: -0.0368. Next, GGCUCCAAGGGAUUUGGUUTT against A2bp1: inactive: 0.523. Under GCCACUCCAUAUGCCAUAGTT against Brsk2 stands inactive: -0.408; under GGACACCAAAAAGAAAGAATT against Ehd3, inactive: -1.22.

Turning to “GGUAUUGAGUGAUAACUACTT against B230308G19Rik”, the z-score is inactive: 0.508. Under CGAAAUGCCUGAAAACUUCTT against Palmd stands inactive: -0.239; under “GGGCUAGCUAGCAAAAGCATT against 1110020C13Rik”, inactive: -0.325.

On to GGAUAUUCAUAGUAACACATT against C87860, for which the z-score was inactive: -0.425. Under GGUUUUAGGAGAACUGUCATT against Peo1 stands inactive: -1.36; under CCGUUGUAUAUACCAGUAUTT against Syt1, inactive: 1.35; under “GGAUGAAGUCUUUCACUUUTT against 1810011O16Rik”, inactive: -1.24. Consider GCACAACUCUGUUCUGUUGTT against Olfr491, for which the z-score is inactive: 0.892.

In the case of “CCUCAUUUCCAAACUCAAATT against E330017E16”, the z-score was inactive: 1.39. Next, GGUGGUGUAUUCUUUUUGATT against Ube2d3: inactive: -1.73; GCUCCAAGUGUUAAAAGAGTT against Eif2ak1: inactive: 0.0571; CCUGUCGUUCCUCCUUACATT against Spc18: inactive: -0.61. Under GGAUUGUUUGUCGAGUUUATT against Mknk2 stands inactive: 0.713. Under GGCCCAAGGAAUAAUCAAGTT against Satb2 stands inactive: 0.743; under “CGGUAACUGAGUCAGUUGUTT against 2310061J03Rik”, inactive: 0.638.

For the sequence GGAUGUGAUGACUCAUUUUTT against Arch, the z-score is inactive: 1.09. Next, GCAGUGAGACUUUUAAUAGTT against Snx17: inactive: 0.871. CGUUCGAGUUGCUGAGCAUTT against Dyrk2: the z-score is inactive: 2. Under “GGCGCAAAAGGAAAAAAAGTT against 2700075B01Rik” stands inactive: 0.611; under “GGUUAAGCUACAAAACAACTT against D130060C09Rik”, inactive: -1.01. Under CCAUCACCACUUACCUCUATT against Tesk1 stands inactive: -0.845; under AGUAACCUGAGACAACACCTT against Zfp50, inactive: -0.954; under GGAGAUCGAAAAGAAUUUCTT against Mx2, inactive: 0.353. Next, GGUACUGAUUACUCUGUAUTT against Mrps17: inactive: -1.66. Take GGCCAAAGUGUUGAAAACATT against Ptger4: the z-score was inactive: 0.139. On to GGUUCUGUCUUUUGGAAGUTT against Gpr21, for which the z-score was inactive: 2.72.

For the sequence GGACCUGUAGCUAGCUUCUTT against Adamts10, the z-score was inactive: -0.392. In the case of GCCUGUAAGAUACUGUACATT against Bbc3, the z-score was inactive: -0.749. Under GCGGCUCCAUCAGAAAAUGTT against Htatip2 stands inactive: -0.967; under CCUUGGUGUGCAUUGGAUGTT against Fbxo15, inactive: -0.437; under “GGGAUUCAGAUUCUAUCAGTT against 1700108E19Rik”, inactive: 0.963. Next, GUUGGAGGAGAAACUCUGGTT against Hbb-bh1: inactive: 1.68; “GGAUAUAAGUUCCAGUUUGTT against 4833436C18Rik”: inactive: -1.51.

In the case of CGUAAGAUUGACUCUAGUATT against Prlpb, the z-score was inactive: -0.826.

As to GGACCAUGUACAGGACUUUTT against Thap7, the z-score was inactive: -0.848. Next, “GCUAUUCAAGUUUAUACGCTT against 4432412D15Rik”: inactive: 0.268; CCACCUGACUUUUGGAAGATT against Coro1b: inactive: 0.248.

Turning to GGAUAUUGAUGUUUCAAGUTT against Neo1, the z-score was inactive: 0.476. Next, GGAGCAAAUAGGGUUCAUUTT against Rhox10: inactive: -1.25; GCUCACCAAGGUCAACUUUTT against BC061212: inactive: -0.264.

With GUGACAUCAACUUAAUGGATT against Klra20, the z-score is inactive: 2.39.

Take “GGGCGUGUCCUUGAAAGAATT against 6030440P17Rik”: the z-score was inactive: -1.46.

As for GGAAGGAGAUAUUGUGUUUTT against Sh3md2, the z-score was inactive: 0.0199. Under CGAUCCAAUGGAUUUCAAGTT against Col3a1 stands inactive: -0.0675.

Turning to GCCAUGGAAAGAGCCUUGATT against AI324046, the z-score is inactive: 0.845.

Take GGCUUUUGAGAGCUACCGGTT against Ell: the z-score is inactive: 0.29. With GGCUCUCAUUGAUGCAUGUTT against Cpeb4, the z-score is inactive: 0.514. Under GGCUGUCACCCUACAUGACTT against Ube1x stands inactive: -0.283; under “GGCUAAAACACUUAUCAAUTT against 4921537P18Rik”, inactive: -1.85. On to GGUGAUUUUCGAUAUACACTT against Dclre1b, for which the z-score was inactive: 0.328. Next, GGAUGCCAAAGCAGCUCAUTT against Epc1: inactive: -0.0654.

Take GCUUGAUGACUACCACUGATT against BC011248: the z-score was inactive: -0.84.

Take GGGAGAUCUUGACAAAUUCTT against Aplp1: the z-score is inactive: 0.458. Next, GGACAUACGGUUUCAUUGUTT against Ptprv: inactive: -0.879. Under “CCAGCGUGAUAGCUAAGAATT against 4732479N06Rik” stands inactive: -0.541; under CCUUUUUACUUCGAGAUUCTT against Socs4, inactive: -0.182; under GGAAAAGACUAAAAUGCUUTT against Rbm5, inactive: 0.858. Under GGUGUCAUGAUGGAGCUGATT against Crygc stands inactive: -0.709; under “GGGCGAGGAAGAAGAAUCUTT against D530031C13Rik”, inactive: 0.773; under GGUCCCUGCAAAGUAGAAUTT against Olfr1153, inactive: 1.18. Turning to GGAACCUGUGGAGAAGGCUTT against Zfp101, the z-score was inactive: 0.554. In the case of GGAUGUUGAUUUUCAUGGUTT against Grpel2, the z-score was inactive: 0.803. Next, “GGCAGUCAGUUUAAAUAAATT against B930067F20Rik”: inactive: -1.5; “GGAGAAUGCCAAGCAUCGATT against 1500005N04Rik”: inactive: -0.789; GACAAUAUCUCUGAAUGGATT against Olfr459: inactive: -0.307.

As to GGACUAAACAGAUUCACUATT against Rnase9, the z-score was inactive: -0.661. Next, GGAAGUCCACGAAACUAAATT against Csh1: inactive: 0.149.

GCUCAGACUGGUCCCUUAATT against Ywhab: the z-score is inactive: -1.63. GGAUAACUGUAACAGCCCGTT against Ly6g6c: the z-score is inactive: -0.597.

Turning to GCUUCUAACUACACAGACUTT against Cd63, the z-score was inactive: 0.499.
